Measured values taken from publication doi:10.1101/2020.08.28.269175.
These are yes or no findings as the source states them, for the method shown. Binding seen in cells or lysates may run through a third protein. Here binding means that the protein was enriched with, or labelled near, the bait; the list need not be complete.

The chains behind the UniProt entries cited, without tags or fusion partners. Where a name states a change or a piece, a line headed by the entry shows the natural chain unless it says otherwise. Residues count along the entry.
UniProt P0DTD8, whole entry, stated change not applied: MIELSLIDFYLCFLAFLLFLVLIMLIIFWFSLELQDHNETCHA
UniProt P0DTC7, 16-121, stated change not applied: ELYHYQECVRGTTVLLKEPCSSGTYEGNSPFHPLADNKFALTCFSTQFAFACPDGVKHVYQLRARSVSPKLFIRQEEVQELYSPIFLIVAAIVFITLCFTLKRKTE

Assays:
Experiment in all cases: proximity labelling
[1] = molecular target: SARS-CoV-2 ORF7B (SARS-CoV-2) (UniProt P0DTD8)
[2] = molecular target: SARS-CoV-2 ORF7A (SARS-CoV-2) (UniProt P0DTC7)
[3] = molecular target: SARS-CoV-2 NSP3 (SARS-CoV-2) (UniProt P0DTD1)

Row | Substance | binding [1] | binding [2] | other results
1 | SLC1A5 (from UniProt Q15758 1-541) | binds | – | –
2 | SLC39A14 (from UniProt Q15043 31-492) | binds | – | –
3 | SLC6A9 (from UniProt P48067 1-706) | – | binds | –
4 | SLC26A11 (from UniProt Q86WA9 1-606) | binds | – | –
5 | SLC4A2 (from UniProt P04920 1-1241) | – | binds | –
6 | FXR2 (from UniProt P51116 1-673) | – | – | binding [3]: binds
7 | SLC6A6 (from UniProt P31641 1-620) | – | binds | –
